Reference: article doi:10.1101/2021.04.30.442137

Chains of the proteins cited; added tags and fusions are not shown. Lines headed by an entry give the natural chain unless they say otherwise; changes in a name come on top.
UniProt Q84M91: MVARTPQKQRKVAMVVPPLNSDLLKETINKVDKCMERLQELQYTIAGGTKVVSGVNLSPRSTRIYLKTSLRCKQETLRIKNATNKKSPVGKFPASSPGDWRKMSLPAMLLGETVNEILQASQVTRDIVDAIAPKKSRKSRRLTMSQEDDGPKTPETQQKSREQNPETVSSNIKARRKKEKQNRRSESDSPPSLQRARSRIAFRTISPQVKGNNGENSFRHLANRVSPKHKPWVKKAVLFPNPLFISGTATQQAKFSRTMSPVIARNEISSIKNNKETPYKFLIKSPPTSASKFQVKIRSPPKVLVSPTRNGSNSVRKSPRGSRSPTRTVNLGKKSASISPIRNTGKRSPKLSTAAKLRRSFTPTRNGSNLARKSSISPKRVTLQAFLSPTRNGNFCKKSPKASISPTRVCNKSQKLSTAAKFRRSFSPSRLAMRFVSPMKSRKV

What was measured:
[1] = target: TANGLED1 (TAN1) in pBD (Arabidopsis) (UniProt Q84M91); experiment: two-hybrid
[2] = target: TANGLED1 amino acids 1-132 (TAN1_(1-132)) in pAS (Arabidopsis) (UniProt Q84M91); experiment: two-hybrid

B1: PHRAGMOPLAST ORIENTING KINESIN1 (POK1), C-terminal amino acids 1683-2066, in pAD (domain or fragment, UniProt Q27IK7 1683-2066)
chain: DMDEEVKRHRTTQDSLETELQALRQRLFRFENFTGTMVTTNESTEEYKSHISRSTGLQGAHSQIQVLQKEVAEQTKEIKQLKEYISEILLHSEAQSSAYQEKYKTLEVMIRDFKLEDSSSSAAETISHKTEKSSTRSRGSSSPFRCIVGLVQQMKLEKDQELTMARVRVEELESLLAVKQKEICTLNTRIAAADSMTHDVIRDLLGVKMDITSYAELIDQHQVQRVVEKAQQHAEEILSKEQEVMNLKRHIDYLFKDRESCMSELNKKDTDVLATQISLDQLQERVQLLSMQNEMLKNDKSNLLRKLAELDRTVHNAQASNHRVPQTTKDTASFKLADTDYTKRLENAQKLLSHANNELAKYRKTSNNHPSTRTQGQSSGTRYR
[1]
  binding: binds
[2]
  binding: binds

No constants are given. Whether binding was seen depends on the method and setting. Binding calls can cover weak binding; strength is not graded here.
